Results from patent US10758466B2, “Powder-based cosmetic compositions containing pelargonic acid esters” (Novamont S.p.A., priority 2015, dated 2020).

Test: Sensory evaluation of the pigment dispersions on the forearm
Conditions: black iron oxide dispersion on forearm; scale from 1 (low) to 5 (high)
Compound CCCCCCCCC(=O)OCC(COC(=O)CCCCCCCC)OC(=O)CCCCCCCC [Glycerol tripelargonate] has a Film evennes of 4, a Flowability of 5 and a Gloss effect of 5. The Writing capability/color intensity was 4.
CC(C)CCCCCCOC(=O)CCCCCC(C)C [Isononyl Isononanoate, reference compound] gave a Film evennes of 2, a Flowability of 4 and a Gloss effect of 2. It also gave a Writing capability/color intensity of 2.
With CCCCCCCCC(=O)OCC(C)(C)COC(=O)CCCCCCCC [Neopentyl glycol dipelargonate] the Film evennes was 4, the Flowability was 2 and the Gloss effect was 2. It also gave a Writing capability/color intensity of 3.
In the case of CCCCCCCCC(=O)OCC(COC(=O)CCCCCCCC)(COC(=O)CCCCCCCC)COC(=O)CCCCCCCC [Pentaerythritol tetrapelargonate], the Film evennes is reported as 4, the Flowability is reported as 4 and the Gloss effect is reported as 5. The Writing capability/color intensity was 4.
